Experimental data: PubChem BioAssay AID1224830 (NIAID, 2016)
The deposit covers about 18,000 reagents; this is a random part of them. About 2,900 of them (16%) were called active. 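Calls are made per well; low scores hint the gene aids the LPS response, high scores that it dampens it.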 A number with no mark means an inactive call. Repeated entries: four replicate wells of each siRNA pool.

Test: 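Host factors that control LPS-induced TNF expression in human macrophages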 (primary screen)
Cell system: human THP-1 monocytic leukaemia cells, TNF dual-luciferase reporter clone, PMA-differentiated to macrophage-like cells
Reagent: siRNA pool against human genes, 50 nM
Duration: LPS for 4 h, given about 3 days after siRNA transfection
Treatment: bacterial LPS (TLR4 ligand), 10 ng/ml
Measured: 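TNF firefly reporter luminescence divided by renilla, normalised to the plate median, then turned into a robust z-score for each replicate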
Reading the numbers: TNF reporter robust z-score: higher = stronger TNF reporter response to LPS
Rule for the call: 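Each well counts as active if its z-score is over 2.8 or under -1.5; controls are left without a call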

target	TNF reporter robust z-score
LRAT	-0.56
LRAT	0.4
LRAT	-0.32
LRAT	0.09
MALT1	-0.33
MALT1	-0.05
MALT1	0.85
MALT1	2.33
DENND3	-0.62
DENND3	-0.59
DENND3	0.18
DENND3	-0.36
ZCCHC2	1.12
ZCCHC2	1.44
ZCCHC2	0.66
ZCCHC2	1.04

Laid out differently: 6 of the entries above.
{"target":"DENND3","TNF reporter robust z-score":-0.59}
{"target":"DENND3","TNF reporter robust z-score":0.18}
{"target":"DENND3","TNF reporter robust z-score":-0.36}
{"target":"ZCCHC2","TNF reporter robust z-score":1.12}
{"target":"ZCCHC2","TNF reporter robust z-score":1.44}
{"target":"ZCCHC2","TNF reporter robust z-score":0.66}

More results follow.
target	TNF reporter robust z-score
CR2	1.12
CR2	2.5
CR2	-0.63
CR2	0.87
NR0B1	-0.96
NR0B1	0.89
NR0B1	0.74
NR0B1	1.55
CNTD1	0.01
CNTD1	0.32
CNTD1	-1.07
CNTD1	0.07
CLASRP	-0.78
CLASRP	-0.54
CLASRP	2.07
ENTPD6	1.59
ENTPD6	3.33 (active)
ENTPD6	2.42
ENTPD6	3.34 (active)
ITIH4	-1.16
ITIH4	-0.75
ITIH4	-1.22
ITIH4	-0.16
PXMP4	1.84
PXMP4	1.11
PXMP4	0.01
PXMP4	-0.23
MYEF2	-0.29
MYEF2	0.41
MYEF2	0.16
MYEF2	0.12
